Where “and” joins values, the source holds several entries; their conditions need not be identical. Equal entries are not always repeated. The whole screen tested about 400,000 compounds, of which about 3,700 (0.93%) were called active. The shares of active, inactive and inconclusive entries below differ from those in the screen. The call rests on the fitted dose curve; in most records, active means well fitted inhibition curve with a large enough effect; inconclusive means small, poorly fitted or top-dose-only effect, or another doubt; inactive means no such curve, though single readings can be large or run the other way. Potencies of inconclusive entries are doubtful fits and often do not repeat.
What follows are compounds tested against Vitamin D3 receptor (Homo sapiens) (UniProt P11473) (assay: Inhibitors of the vitamin D receptor (VDR): qHTS). Settings: VDR-SRC2-3 peptide fluorescence polarization, 2 h; max response, negative = inhibition: hits give low values.
In short: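 FP read-out; VDR + SRC2-3 coactivator peptide; 23 nl compound by pintool; 2 h RT incubation; reagents held at 4 deg C, protected from light.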
On the % scale 0 is the no-effect control and ±100 the full control effect; potency means the concentration at half of the fitted maximal effect.

By UniProt entry, the sequences of proteins in these tests, tags left out. Where a name states a change or a piece, a line headed by the entry shows the natural chain unless it says otherwise.
UniProt P11473: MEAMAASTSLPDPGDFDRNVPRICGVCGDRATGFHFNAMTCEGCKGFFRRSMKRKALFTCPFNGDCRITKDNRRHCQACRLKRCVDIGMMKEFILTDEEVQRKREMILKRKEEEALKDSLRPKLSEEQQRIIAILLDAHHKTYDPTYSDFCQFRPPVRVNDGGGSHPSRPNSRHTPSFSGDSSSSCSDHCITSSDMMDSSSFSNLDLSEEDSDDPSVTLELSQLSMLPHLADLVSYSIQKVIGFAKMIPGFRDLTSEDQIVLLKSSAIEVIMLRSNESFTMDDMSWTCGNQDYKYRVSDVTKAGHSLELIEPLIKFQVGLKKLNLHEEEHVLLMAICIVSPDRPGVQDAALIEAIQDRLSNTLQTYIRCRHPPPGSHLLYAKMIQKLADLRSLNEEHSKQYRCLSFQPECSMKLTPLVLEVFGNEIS

Row | Compound | Potency | max response, negative = inhibition
1 | CCOCCCNC(=O)c1cc2c(s1)-c1ccccc1SC2 | inconclusive: 79.4 µM [inhibitor, partial curve, poor fit] | –
2 | Cc1ccc(CNC(=O)C2CCN(S(=O)(=O)c3cccs3)CC2)o1 | inconclusive: 89.1 µM [inhibitor, single point] | –
3 | Cc1ccc2nc(-c3cccc(N)c3)[nH]c2c1 | – | inactive: -4.86%
4 | CCOC(=O)C1=C(C)N(c2ccc(OC)cc2)C(=O)/C1=C\c1ccc(O)c(OCC)c1 | inconclusive: 79.4 µM [inhibitor, partial curve] | –
5 | O=C(c1ccc2c(c1)OCO2)N1CCN(c2ccccn2)CC1 | inconclusive: 35.5 µM [inhibitor, partial curve, poor fit] | –
6 | CS(=O)(=O)Nc1ccc([N+](=O)[O-])cc1Oc1ccccc1 | inconclusive: 50.1 µM [inhibitor, partial curve, poor fit] | inactive: -11.7% and inactive: -7.12% and inactive: -16.4%
7 | CCCCCOc1ccc(CSc2n[nH]c(C)n2)cc1 | inconclusive: 79.4 µM [inhibitor, single point] | –
8 | CCOC(=O)c1c(NC(=O)c2ccco2)sc2c1CCCC2 | inconclusive: 28.2 µM [inhibitor, single point] | –
9 | O=C(O[C@@H]1Cc2c(O)cc(O)cc2OC1c1ccc(O)c(O)c1)c1cc(O)c(O)c(O)c1 (some centres undefined) | inconclusive: 89.1 µM [inhibitor, single point] | –
10 | Clc1ccccc1-c1nc2nc3ccccc3nc2n1-c1ccc2c(c1)OCO2 | inconclusive: 79.4 µM [inhibitor, partial curve, poor fit] | –
11 | Nc1nc(N2CCN(C(=O)c3ccco3)CC2)nc2ccc(Br)cc12 | – | inactive: -12.3%
12 | CCOC(=O)CSC1=C(C#N)C(=O)NC(c2ccc(OC)cc2)S1 (centres undefined) | inconclusive: 70.8 µM [inhibitor, partial curve, poor fit] | –
13 | Cc1cc(C)n(-c2cc(N3CCN(C(=O)c4cccc(Br)c4)CC3)ccc2[N+](=O)[O-])n1 | – | inactive: 0.306%
14 | O=C(O)CCc1ccc(-c2ccc(Cl)cc2)o1 | inconclusive: 39.8 µM [inhibitor, partial curve, poor fit] | –
15 | CC(C)(C)NCC(=Cc1ccccc1)C(=O)c1ccccc1 | inconclusive: 79.4 µM [inhibitor, single point] | –
16 | CCn1nc(C)c(CNC(=O)Nc2ccccc2C(=O)OC)c1C | inconclusive: 89.1 µM [inhibitor, single point] | –
17 | CCOc1cc(/C=C2/SC(=S)N(CC3CCCO3)C2=O)ccc1O (centres undefined) | – | inactive: -10.2%
18 | O=C(CCS(=O)(=O)c1ccc2c(c1)NC(=O)CO2)NCc1ccccc1 | – | inactive: -5.53%
19 | CCOC(=O)c1c(NC(=O)CCNCc2ccco2)sc2c1CCC2 | – | inactive: 8.38%
20 | CCOC(=O)c1ccc2c(c1)nc(SCC(=O)c1ccco1)n2CC | inconclusive: 100 µM [inhibitor, single point] | –
21 | O=C(CCl)Nc1cn(-c2ccccc2)nc1-c1ccc(F)cc1 | – | inactive: -8.1%

Some of these compounds in order of length of the SMILES, smallest number first.
Row | Compound | Potency | max response, negative = inhibition
19 | CCOC(=O)c1c(NC(=O)CCNCc2ccco2)sc2c1CCC2 | – | inactive: 8.38%
11 | Nc1nc(N2CCN(C(=O)c3ccco3)CC2)nc2ccc(Br)cc12 | – | inactive: -12.3%
4 | CCOC(=O)C1=C(C)N(c2ccc(OC)cc2)C(=O)/C1=C\c1ccc(O)c(OCC)c1 | inconclusive: 79.4 µM [inhibitor, partial curve] | –

Next part:

Row | Compound | Potency | max response, negative = inhibition
22 | Cn1c(SCc2ccccc2)nc(N)c(N=O)c1=O | inconclusive: 79.4 µM [inhibitor, partial curve, poor fit] | –
23 | CCOC(=O)c1ccc(N2C(=O)CC(N3CCCC(C)C3)C2=O)cc1 (centres undefined) | – | inactive: 4.88%
24 | Nc1ncnc2nc(-c3ccc(N4CCOCC4)nc3)cc(-c3cccc(Br)c3)c12 | – | inactive: -1.95%
25 | O=C(O)c1ccc(Oc2nc3ccccc3s2)cc1 | – | inactive: -2.23%
26 | CCCc1[nH]nc2c1C(c1ccc(OC)cc1OC)C(C#N)=C(N)O2 (centres undefined) | inconclusive: 89.1 µM [inhibitor, partial curve, poor fit] | –
27 | Cc1cc2c3c(c1)C1(SCC(=O)N1c1ccc(F)cc1)C(=O)N3C(C)(C)CC2C (centres undefined) | – | inactive: -24.3%
28 | O=C1c2cccnc2C(=O)N1Cc1ccc(S(=O)(=O)NCc2ccco2)s1 | – | inactive: 14.1%
29 | COc1ccc2[nH]cc(/C=N/NS(=O)(=O)c3ccc(C)cc3)c2c1 | inconclusive: 7.94 µM [inhibitor, partial curve, poor fit] | –
30 | CN(Cc1ccco1)c1ncnc2ccc(-c3cccnc3)cc12 | inconclusive: 44.7 µM [inhibitor, partial curve] | –
31 | CN(C)C(=O)c1ccc(-c2nccc(NCc3ccccc3)n2)cc1 | inconclusive: 89.1 µM [inhibitor, single point] | –
32 | NS(=O)(=O)c1ccc(CCn2c(=S)[nH]c3ccc(F)cc3c2=O)cc1 | – | inactive: -12.7%
33 | C[C@]12C=CC(=O)C=C1CC[C@@H]1[C@@H]2C(=O)C[C@@]2(C)[C@H]1CC[C@]2(O)C(=O)CO | inconclusive: 112 µM [inhibitor, partial curve, poor fit] | –
34 | CCCn1c(SCC(N)=O)nnc1-c1ccco1 | inconclusive: 25.1 µM [inhibitor, full curve, poor fit] | –
35 | O=C(c1ccccc1)N1CCCC(C(=O)N2CCN(c3ccccc3)CC2)C1 (centres undefined) | inconclusive: 35.5 µM [inhibitor, single point] | –
36 | Cc1ccc(CNC(=O)C(=O)NCC(c2ccco2)S(=O)(=O)c2ccc(C)cc2)cc1 (centres undefined) | – | inactive: 12.2%
37 | CCOC(=O)c1sc(=S)n(-c2ccc(C)cc2)c1N | inconclusive: 56.2 µM [inhibitor, partial curve, poor fit] | –
38 | Cc1ccc(NC(CC(=O)c2ccccc2)C(=O)O)cc1Cl (centres undefined) | inconclusive: 28.2 µM [inhibitor, partial curve, poor fit] | –
39 | Cn1nc(-c2ccccc2F)c2cc(C(=O)Nc3cc(F)ccc3F)sc21 | inconclusive: 79.4 µM [inhibitor, single point] | –
40 | COc1ccc2[nH]cc(CCNc3ncncc3-c3ccoc3)c2c1 | – | inactive: -22.6%
41 | COc1ccc(/C=C/C(=O)c2ccncc2)c2ccccc12 | active: 25.1 µM | –
42 | Cc1ccc(-c2csc3ncnc(-n4nnc5ccccc54)c23)cc1 | inconclusive: 89.1 µM [inhibitor, single point] | –

Row | Compound | Potency | max response, negative = inhibition
43 | CCn1c(=O)n(CC)c2cc(S(=O)(=O)N3CCOCC3)ccc21 | inconclusive: 89.1 µM [inhibitor, single point] | –
44 | Cc1cc(C)cc(NC(=O)C(c2ccccc2)N2CCN(CC(=O)NC3CC3)CC2)c1 (centres undefined) | inconclusive: 89.1 µM [inhibitor, single point] | –
45 | CCc1ccc(-n2c(=S)sc3c(=O)n(-c4ccccc4OC)c(=S)[nH]c32)cc1 | inconclusive: 89.1 µM [inhibitor, single point] | –
46 | COC(=O)c1c(-c2cccs2)csc1NC(=O)c1ccc(C)cc1 | inconclusive: 22.4 µM [inhibitor, single point] | –
47 | O=C(c1ccc(-c2ccc([N+](=O)[O-])cc2)o1)N1CCCCCCC1 | active: 35.5 µM | –
48 | C[C@@H]1NC(=O)c2cc([N+](=O)[O-])cc(I)c2NCCCC[C@@H](C(N)=O)NC(=O)[C@H](CCC(=O)O)NC1=O | inconclusive: 112 µM [inhibitor, partial curve, poor fit] | –
49 | CCOC(=O)N1CCc2c(sc3c2C(=O)NC(c2ccc(C(=O)OC)cc2)N3)C1 (centres undefined) | – | inactive: -2.45%
50 | CCNc1nc2c(c(=O)n(C)c(=O)n2C)n1CCCc1ccccc1 | inconclusive: 28.2 µM [inhibitor, single point] | –
51 | Cc1ccc(S(=O)(=O)N(Cc2ccc(Cl)cc2)c2ccccc2C(=O)NCc2ccco2)cc1 | inconclusive: 44.7 µM [inhibitor, partial curve, poor fit] | –
52 | COc1cc(N=c2ssnc2Cl)cc(OC)c1 | active: 20 µM | –
53 | COCOc1cc(OC)ccc1C(=O)/C=C/c1ccc([N+](=O)[O-])cc1 | inconclusive: 56.2 µM [inhibitor, partial curve, poor fit] | –
54 | CC(C)C[C@@H](CNCC(=O)[C@H](C)NC(=O)c1[nH]cnc1C(=O)N[C@H](CN)CC(C)C)NC(=O)c1nc[nH]c1C(=O)N[C@@H](C)C(=O)O | inconclusive: 100 µM [inhibitor, partial curve, poor fit] | –
55 | N#Cc1c(C#N)c(SSc2c(C#N)c(C#N)c(N)n2-c2ccccc2)n(-c2ccccc2)c1N | inconclusive: 89.1 µM [inhibitor, partial curve, poor fit] | –
56 | COCCSc1nc2c(c(=O)[nH]c(=O)n2C)n1CCCc1ccccc1 | inconclusive: 89.1 µM [inhibitor, single point] | –
57 | O=C(O)c1cc(=O)c2c3nc4ccccc4oc-3cc(=O)c2[nH]1 | inconclusive: 44.7 µM [inhibitor, partial curve] | –
58 | COc1ccccc1CNc1ccnc(-c2cccnc2)n1 | inconclusive: 50.1 µM [inhibitor, partial curve] | –
59 | C/C(Cn1nnc([N+](=O)[O-])n1)=N\NC(=O)c1ccc(O)cc1 | – | inactive: 5.33%
60 | Cc1ccc(-c2ccc(C(=O)Nc3ccccc3)o2)c2ccccc12 | inconclusive: 70.8 µM [inhibitor, single point] | –
61 | COc1ccc(C(CNC(=O)CSc2ccc(Br)cc2)N2CCOCC2)cc1 (centres undefined) | inconclusive: 31.6 µM [inhibitor, partial curve, poor fit] | –
62 | CCCCc1ccc(NC(=O)C(=O)NCCN2CCN(Cc3ccc([N+](=O)[O-])cc3)CC2)cc1 | inconclusive: 56.2 µM [inhibitor, partial curve, poor fit] | –
63 | COc1cccc(NC(=S)N(Cc2ccc(C)cc2)Cc2ccccn2)c1 | inconclusive: 89.1 µM [inhibitor, single point] | –

Source: PubChem BioAssay AID504847 (National Center for Advancing Translational Sciences (NCATS), 2011)
